Library screen at single concentrations

Protein sequences, listed by entry. Tags and fused reporters are not part of them. Residues count along the entry.
UniProt I6X8D2, whole entry: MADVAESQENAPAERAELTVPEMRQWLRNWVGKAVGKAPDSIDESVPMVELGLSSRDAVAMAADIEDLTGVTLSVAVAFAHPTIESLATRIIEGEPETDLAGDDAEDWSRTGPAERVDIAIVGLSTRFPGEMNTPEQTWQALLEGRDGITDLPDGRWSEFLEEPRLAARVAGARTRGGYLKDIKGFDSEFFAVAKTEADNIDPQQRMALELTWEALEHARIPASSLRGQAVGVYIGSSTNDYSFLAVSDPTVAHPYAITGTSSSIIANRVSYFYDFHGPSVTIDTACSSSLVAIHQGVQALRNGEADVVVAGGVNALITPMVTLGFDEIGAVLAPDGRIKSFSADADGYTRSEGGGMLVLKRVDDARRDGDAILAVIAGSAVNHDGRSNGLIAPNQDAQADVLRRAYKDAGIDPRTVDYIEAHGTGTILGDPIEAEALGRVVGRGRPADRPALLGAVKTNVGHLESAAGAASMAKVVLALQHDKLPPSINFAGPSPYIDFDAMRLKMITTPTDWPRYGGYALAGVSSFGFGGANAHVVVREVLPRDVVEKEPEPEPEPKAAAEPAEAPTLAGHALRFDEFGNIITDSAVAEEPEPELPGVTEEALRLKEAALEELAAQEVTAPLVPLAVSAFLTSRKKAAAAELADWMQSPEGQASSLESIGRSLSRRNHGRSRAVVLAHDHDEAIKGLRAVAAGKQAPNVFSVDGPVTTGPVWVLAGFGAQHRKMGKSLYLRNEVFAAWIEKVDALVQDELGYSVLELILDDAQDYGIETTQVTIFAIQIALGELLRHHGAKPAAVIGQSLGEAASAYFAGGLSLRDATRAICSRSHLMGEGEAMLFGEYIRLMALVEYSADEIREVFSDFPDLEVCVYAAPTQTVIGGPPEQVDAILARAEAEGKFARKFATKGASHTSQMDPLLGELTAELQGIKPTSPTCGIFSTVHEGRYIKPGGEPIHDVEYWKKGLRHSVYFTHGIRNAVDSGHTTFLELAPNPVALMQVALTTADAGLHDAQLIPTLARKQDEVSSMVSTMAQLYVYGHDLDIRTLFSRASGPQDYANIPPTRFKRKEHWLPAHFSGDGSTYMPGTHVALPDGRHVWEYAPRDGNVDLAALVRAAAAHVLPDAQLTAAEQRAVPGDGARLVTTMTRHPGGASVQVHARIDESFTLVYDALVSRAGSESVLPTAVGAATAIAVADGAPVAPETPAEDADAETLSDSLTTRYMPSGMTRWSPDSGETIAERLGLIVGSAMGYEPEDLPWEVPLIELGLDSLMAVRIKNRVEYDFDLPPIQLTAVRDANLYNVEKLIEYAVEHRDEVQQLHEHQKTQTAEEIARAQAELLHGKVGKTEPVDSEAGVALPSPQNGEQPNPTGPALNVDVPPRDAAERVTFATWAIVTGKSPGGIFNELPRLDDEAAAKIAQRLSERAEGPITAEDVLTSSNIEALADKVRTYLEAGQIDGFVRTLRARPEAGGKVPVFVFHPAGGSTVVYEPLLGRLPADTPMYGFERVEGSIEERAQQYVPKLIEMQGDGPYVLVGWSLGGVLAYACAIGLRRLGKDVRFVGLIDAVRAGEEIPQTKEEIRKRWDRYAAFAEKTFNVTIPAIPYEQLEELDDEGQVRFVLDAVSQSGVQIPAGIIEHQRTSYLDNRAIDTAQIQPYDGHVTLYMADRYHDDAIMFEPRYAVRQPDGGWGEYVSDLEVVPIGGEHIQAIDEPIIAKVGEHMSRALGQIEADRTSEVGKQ
UniProt A4I591, 1-473: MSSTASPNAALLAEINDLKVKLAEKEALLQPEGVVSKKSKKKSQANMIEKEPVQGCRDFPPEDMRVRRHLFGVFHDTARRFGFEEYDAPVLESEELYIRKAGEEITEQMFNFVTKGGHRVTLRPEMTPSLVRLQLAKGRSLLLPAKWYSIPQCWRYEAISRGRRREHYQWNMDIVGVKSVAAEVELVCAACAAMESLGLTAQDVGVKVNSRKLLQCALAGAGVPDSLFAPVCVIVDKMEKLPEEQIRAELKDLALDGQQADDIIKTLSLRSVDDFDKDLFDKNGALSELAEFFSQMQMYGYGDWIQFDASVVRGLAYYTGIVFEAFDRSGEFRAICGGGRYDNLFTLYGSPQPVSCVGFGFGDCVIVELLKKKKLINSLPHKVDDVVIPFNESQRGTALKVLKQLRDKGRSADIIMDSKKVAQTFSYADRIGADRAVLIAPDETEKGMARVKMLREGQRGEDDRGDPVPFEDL

A: 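Polyketide synthase Pks13, Mycobacterium tuberculosis (UniProt I6X8D2). Enzyme assay of the thioesterase domain of polyketide synthase 13; the read-out is not stated. Tested at 30 µM. Higher reads as stronger inhibition (inferred from which compounds were picked for retests). About 67,000 compounds were tested under these conditions; 0.46% (about 300) showed 50% or more at least once.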
B: 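Enzyme assay of histidyl-tRNA synthetase; the read-out is not stated. Target: Histidine-tRNA ligase, Leishmania infantum (UniProt A4I591). Compounds at 30 µM. Higher reads as stronger inhibition (inferred: compounds with an IC50 in retests scored well above the rest). The assay is labelled LdHisRS but filed under L. infantum. About 69,000 compounds were tested under these conditions; 0.6% (about 410) showed 50% or more at least once.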

The filed quantity is “Percent Effect” (%). How 0% and 100% were set is not recorded. Most values in the screen are low, and negative values occur. This is an unselected part of the compounds tested. A dash means the value is not listed here; it may have been measured.

SMILES	A	B
Cn1cccc1C(=O)N1CCCCC1c1ccn2ccnc2n1 (centres unmarked)	6.52%	13.1%
CC(C)c1cc(C(=O)N2CCN(C)[C@@H]3CS(=O)(=O)C[C@@H]32)no1	-11.64%	12.9%
COc1cc(CNC(=O)C(C)SC)cc(Br)c1OC (centres unmarked)	-36.07%	24.79%
O=C(NCCn1ccnc1)C1COCC(=O)N1Cc1ccccc1 (centres unmarked)	-11.46%	0%
Cc1cccc(C2CCCN(S(=O)(=O)c3cccnc3)C2)n1 (centres unmarked)	-9.105%	12.95%
CCc1nnc(CN2CCN(c3cccc(OC)c3)C(=O)C2)o1	-1.897%	-6.742%
Cc1cc(C)c(C#N)c(N2CCC3(CCCN(CCO)C3=O)C2)n1 (centres unmarked)	-3.727%	-3.614%
CN1CCC(c2ncc3c(n2)CCN(C(=O)CC2C=CCC2)C3)CC1 (centres unmarked)	-2.924%	22.86%
CC(C)C(=O)NS(=O)(=O)c1ccc2c(c1)N(C)CCC2	-15.22%	9.859%
OC(CNCCn1cccn1)COc1ccc2ccccc2c1 (centres unmarked)	-	14.53%
CCN1CCC(CC(=O)NCCc2nc(N)cc(O)n2)CC1	-2.612%	10%
COc1ccccc1OCCc1nnc(NC(=O)C2CC23CCC3)s1 (centres unmarked)	-8.28%	-4.196%
COCCN1CCCC2(CCN(c3cc(C)c(C#N)c(C)n3)C2)C1=O (centres unmarked)	-14.11%	15.66%
O=c1cnc2ccccc2n1CCCn1cccn1	-25.16%	18.18%
COc1ccc(OC)c(C2CCN(c3ccc4cc[nH]c4n3)C2)c1 (centres unmarked)	-38.01%	-3.125%
CCc1nnc2n1CCN(C(C(=O)NC1CC1)c1ccccc1)C2 (centres unmarked)	-13.45%	10.19%
CNC(=O)N1CC[C@@H]2CN(CCc3cccc(OC)c3)S(=O)(=O)[C@@H]2CC1	-37.83%	21.05%
CCC(C)CN(C)C(=O)NCc1ccccc1-n1cccn1 (centres unmarked)	-18.73%	7.895%
Cc1cccc(CN2CC[C@H]3OCC[C@@]3(C(=O)N3CCCO3)C2)n1	8.332%	11.32%
CSCc1ccc(CNCCN2CCOCC2)o1	-26.22%	13.33%
COc1ccccc1[C@@H]1CN(C(=O)c2csc(C)n2)C[C@H]1C(=O)O	-9.321%	18.27%
Cc1oncc1C(=O)N1CC2CC1(C(=O)N1CCCC1)C2	-58.85%	-1.923%
Cc1ccc(-c2nc(CN3CCCC3Cn3cncn3)co2)cc1 (centres unmarked)	-2.845%	14.29%
CCOc1cc([C@H]2N[C@@H](c3nc(C)cs3)Cc3ccsc32)ccc1OC	36.64%	19.72%
COC(=O)NCC(=O)N1CCCn2nc(CN3CC[C@H](F)C3)cc2C1	-12.32%	4.444%
c1ccc(NCc2cnc3n2CCN(CC2CCOC2)CC3)nc1 (centres unmarked)	-15.73%	21.1%
Cc1cc(C)n(C2CCCN(C(=O)c3c[nH]c(=O)c(Cl)c3)C2)n1 (centres unmarked)	-2.185%	3.306%
Cc1noc(C)c1C1CCCN1CCC(=O)N1CCc2ccccc2C1 (centres unmarked)	-	13.13%
Cc1ccc(N2CC[C@@H]3O[C@@H](COCc4cccnc4)CC[C@@H]32)nn1	-25.1%	13.16%
C=C(C)CN1CCN(Cc2nccn2C)C(C)C1 (centres unmarked)	-17.64%	14.68%
CN(C)CCOCC1CN(Cc2ccsc2)Cc2nnn(C)c21 (centres unmarked)	-36.98%	8.333%
CCc1cc(NC(C)(C)C)nc(N2CCOCC2)n1	-18.14%	10.83%
CCn1cc(-c2cc(C(=O)N3CCOCC3)c3cc(Cl)ccc3n2)cn1	16.39%	11.67%
c1ccc(CN2CCc3ncnc(-c4cccnc4)c3CC2)nc1	-12.55%	11.76%
c1nc2c(c(NC3CCc4ncnn4C3)n1)CCC2 (centres unmarked)	-3.972%	12.82%
CNC(=O)c1cccc(CNC(=O)C2CC(=O)N(CCN(C)C)C2)c1 (centres unmarked)	-14.59%	20.39%
c1ccc(CN2C[C@@H]3CC[C@H](C2)N(Cc2nnc(C4CC4)o2)C3)cc1	-21.31%	34.04%
CNc1cncc(C2CCCN2C(=O)Cn2ccnc2C)n1 (centres unmarked)	37.44%	10.07%
c1ncn(CC2CCCN(Cc3nc(C4CC4)no3)C2)n1 (centres unmarked)	-31.36%	10.11%
CCOC(C)c1nc(CN2CCN(c3ncc(C)cn3)CC2)cs1 (centres unmarked)	2.736%	4.839%
Cc1nc(CCNC(=O)C(N)c2c(C)n[nH]c2C)sc1C (centres unmarked)	-16.79%	13.92%
O=C(N1CCCC1)C12CC(CN1Cc1nccs1)C2	-27.39%	10.34%
O=C(CC1Cn2ncnc2NC1=O)Nc1ccc(F)c(F)c1 (centres unmarked)	1.905%	8.276%
CC(=O)c1ccc(N2CCC3(CC2)CC(=O)N(C)C3)nc1	1.086%	14.47%
Cc1nc2cc(OCc3nc(C(=O)NC(CO)CO)co3)ccc2s1	-11.3%	15.2%
Cc1ccc(S(=O)(=O)N2C[C@H]3C[C@H](NC(=O)c4cscn4)[C@H]3C2)cc1	-7.228%	0%
CCCn1cnnc1-c1nc2c([nH]1)CC(c1ccc(Cl)cc1)CNC2=O (centres unmarked)	29.25%	-2.632%
CC(=O)N1CCC2(CCN(CC(C)C)C2)C1 (centres unmarked)	5.928%	7.767%
CC1CN(C(=O)NCCCn2cncn2)CCO1 (centres unmarked)	-3.792%	12%
CCc1ccc(CN2C[C@@H]3OCCN(c4ccnc(N(C)C)n4)[C@@H]3C2)o1	-15.65%	15.24%
COc1ccc2cc(NC(=O)CCCNc3ncccn3)cnc2c1	-16.79%	18.42%
O=C(c1cc(C2CC2)on1)N1CCC(Oc2ncccc2Br)CC1	-46.81%	3.478%
COc1ccc(C(=O)NCC(c2cccn2C)N2CCCC2)cc1OC (centres unmarked)	-13.98%	16.44%
O=C(NCCC(=O)N1CCCCCC1)c1c(O)cc(F)cc1F	-17.89%	18.67%
CC(C)NC(=O)NCc1ccc(C(=O)NC(C)Cn2cccn2)cc1 (centres unmarked)	-8.453%	9.735%
COCCN1C[C@@H]2CN(Cc3ccoc3)CCC[C@]2(C(=O)O)C1	-27.75%	7.018%
O=C(c1ccco1)N(CC(F)(F)F)C1CCCOC1 (centres unmarked)	-30.6%	12.82%
Cc1nn(CC(=O)N2CCCN(c3cccnn3)CC2)c(C)c1Cl	-	15.09%
COc1cc(N2CC[C@@H]3OCCN(C)[C@H]3CC2)ncn1	-14.45%	17.12%
Cc1nc(NCc2nnc(C)n2C)c2c(CC(C)C)csc2n1	-5.808%	1.176%
CC(=O)N1CC(C)CN(Cc2ccon2)c2ccccc21 (centres unmarked)	-31.63%	10%
CN(Cc1ccsc1)C(=O)Nc1ccc(S(C)(=O)=O)cc1	-20.02%	11.86%
Cn1cnc2c1CCN(Cc1nc(COc3ccc(F)cc3)no1)C2	-3.874%	-98.48%
COc1cc(C)nc(N2CCN(C(=O)COCC(F)(F)F)CC2)n1	-4.428%	-8.511%
O=C(CN(CC(O)c1ccc(F)cc1)C1CC1)NCc1cccs1 (centres unmarked)	-	17.28%
CC(C)N1CCc2[nH]nc(C(=O)N3CCN(C)CC3)c2C1	-23.49%	17.48%
Cc1cnn(CC(C)NCc2csc(-c3ncccn3)n2)c1 (centres unmarked)	-5.08%	6.087%
Cn1cccc1-c1cc(C(=O)N2CCCC2C(F)(F)F)[nH]n1 (centres unmarked)	-7.315%	25%
c1nc(CCC2CCCN2)cc(N2CCCCCC2)n1 (centres unmarked)	-0.7556%	9.375%
COC(C)(CNS(=O)(=O)c1cccnc1)c1ccccc1F (centres unmarked)	-30.61%	5.195%
CCS(=O)(=O)N1CCC2(CC1)CN(Cc1ccccn1)C(=O)CO2	-2.758%	7.843%
COc1cccc(CNC(=O)C(c2cccc(F)c2)N2CCOCC2)c1 (centres unmarked)	27.91%	28.57%
COCCCNC(=O)N1CCCC(c2nncn2C)C1 (centres unmarked)	-7.974%	1.515%
CN(C)C(=O)C1CSCN1C(=O)CCc1ccco1 (centres unmarked)	-27.25%	24.1%
Cc1ccc(N2CCCc3sc(C(=O)NCCC#N)nc32)nn1	-30.48%	27.03%

7 of the entries, repeated:

{"smiles": "Cc1ccc(S(=O)(=O)N2C[C@H]3C[C@H](NC(=O)c4cscn4)[C@H]3C2)cc1", "A": -7.228, "B": 0}
{"smiles": "c1ccc(NCc2cnc3n2CCN(CC2CCOC2)CC3)nc1", "stereo": "centres unmarked", "A": -15.73, "B": 21.1}
{"smiles": "O=c1cnc2ccccc2n1CCCn1cccn1", "A": -25.16, "B": 18.18}
{"smiles": "CCc1nnc(CN2CCN(c3cccc(OC)c3)C(=O)C2)o1", "A": -1.897, "B": -6.742}
{"smiles": "COc1ccc(C(=O)NCC(c2cccn2C)N2CCCC2)cc1OC", "stereo": "centres unmarked", "A": -13.98, "B": 16.44}
{"smiles": "CN(Cc1ccsc1)C(=O)Nc1ccc(S(C)(=O)=O)cc1", "A": -20.02, "B": 11.86}
{"smiles": "OC(CNCCn1cccn1)COc1ccc2ccccc2c1", "stereo": "centres unmarked", "B": 14.53}

Source: ChEMBL document CHEMBL3988442, “University of Dundee, Small-Polar-MMV Screening Library” (2021).